# Values from PubChem BioAssay AID686937 (Drosophila RNAi Screening Center, 2013)
# Screen: 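Genes whose loss weakens secretory pathway function in fly cells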 (primary screen)
# Cell system: Drosophila S2 cells expressing secreted horseradish peroxidase
# Knock-down reagent: long dsRNA against Drosophila genes
# Timing: about 5.5 days (5 days dsRNA, then 12 h reporter induction)
# Treatment: reporter expression induced after 5 days of dsRNA, read 12 h later; inducer not stated
# Read-out: 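Chemiluminescent measurement of peroxidase in the medium 12 h after reporter induction, following 5 days of dsRNA, given as a z-score per plate; higher means more secretion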
# Scale: z-score: higher = more reporter secreted into medium
# The deposit covers about 23,000 reagents; shown is a random part of those with a known target gene and a result. 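Reduced-secretion tags in replicate 1 do not always agree with the z-scores; no criterion for assigning the tags was given.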 The numbers tell different reagents against one gene apart. No sequences are given here. Not stated in the record: the amount of reagent.
"z-score, replicate 1","z-score, replicate 2","z-score, replicate 3","z-score, replicate 4","phenotype, replicate 1",gene knocked down,reagent no.
0.3,0.2,,,,btd (buttonhead),1
-0.12,0.44,,,,ric8a,1
0.01,0.01,,,,RPA3 (Replication protein A3),1
0.5,-0.37,,,,CG33332,1
0.31,0.12,,,,CG8507,1
0.17,0.27,,,,Gabat (gamma-aminobutyric acid transaminase),1
0.55,0.15,,,,Nmdar1 (NMDA receptor 1),1
0.34,0.74,,,,Nmdar1 (NMDA receptor 1),2
0.2,0.52,,,,CG1958,1
0.4,0.35,0.39,0.33,,Lrrk (Leucine-rich repeat kinase),1
0.33,0.59,,,,Lrrk (Leucine-rich repeat kinase),2
0.7,1.64,,,,Ir94b (Ionotropic receptor 94b),1
0.16,0.62,,,,eloF (elongase F),1
-2.99,-1.31,,,reduced secretion,eIF3b (eukaryotic translation initiation factor 3 subunit b),1
0.23,0.33,,,,siz (schizo),1
0.33,0.39,,,,siz (schizo),2
0.41,0.75,,,,siz (schizo),3
0.38,0.19,,,,ProtB (Protamine B),1
0.48,0.53,0.31,0.53,,Deaf1 (Deformed epidermal autoregulatory factor-1),1
1.08,1.31,,,,Deaf1 (Deformed epidermal autoregulatory factor-1),2
0.26,-0.12,,,,ND1 (retired record),1
-0.15,-0.27,,,,Noc2 (Nucleolar complex protein 2),1
0.26,0.29,,,,CG16952,1
-2.05,-0.09,,,reduced secretion,CG2691,1
0.49,0.44,,,,CG10959,1
0.1,0.11,,,,CG1695,1
-0.19,0.15,,,,Gr93b (Gustatory receptor 93b),1
0.45,0.4,,,,CG8613,1
0.02,0.4,,,,CG6791,1
0.28,0.26,,,,CG2736,1
0.27,0.19,,,,DopEcR (Dopamine/Ecdysteroid receptor),1
-0.08,-0.8,,,,pdgy (pudgy),1
0.07,0.37,,,,pdgy (pudgy),2
0.39,0.05,,,,CG7551,1

Look-ups from the entries so far.
Under “z-score, replicate 3”, Deaf1 (Deformed epidermal autoregulatory factor-1) #1 has 0.31
ND1 (retired record), z-score, replicate 2 → -0.12
Result of Gr93b (Gustatory receptor 93b) under “z-score, replicate 1”: -0.19
Value for CG2736 under “z-score, replicate 1”: 0.28
Gabat (gamma-aminobutyric acid transaminase), z-score, replicate 2 → 0.27
Result of Lrrk (Leucine-rich repeat kinase) #1 under “z-score, replicate 1”: 0.4

Further reagents follow.
"z-score, replicate 1","z-score, replicate 2","z-score, replicate 3","z-score, replicate 4","phenotype, replicate 1",gene knocked down,reagent no.
0.72,0.73,,,,CG14852,1
0.37,0.47,-0.37,-0.29,,CG7530,1
-3.93,-3.11,,,reduced secretion,RpS27A (Ribosomal protein S27A),1
0.46,-0.29,,,,CG17760,1
0.35,0.51,,,,CG31431,1
0.01,0.4,,,,Gem3 (Gemin 3),1
0.25,0.32,0.37,0.42,,Prp6 (pre-mRNA processing factor 6),1
-0.88,0.11,,,,Prp6 (pre-mRNA processing factor 6),2
0.25,0.46,,,,CG9265,1
0.39,-0.37,,,,CG9265,2
0.29,0.25,,,,CG32333,1
0.14,0.28,,,,CG32333,2
-0.06,-0.62,,,,mRpL40 (mitochondrial ribosomal protein L40),1
0.48,0.11,,,,CG34028,1
0.21,0.22,,,,gammaTub37C (gamma-Tubulin at 37C),1
0.39,0.31,,,,fw (furrowed),1
0.4,0.37,,,,Jhbp14 (Juvenile hormone binding protein 14),1
0.25,0.06,,,,CG12917,1
0.57,0.39,,,,botv,1
-1.46,0.24,0.31,-0.72,,spin (spinster),1
0.11,0.11,,,,spin (spinster),2
0.23,0.32,,,,CG33136,1
